Where two headings read alike, the source gives them in different places. These are yes or no findings as the source states them, for the method shown. Some results given as binding are weak or reduced against the parent protein; the word gives no strength.
Legend:
EphA2-eYFP [1] = molecular target: EphA2-eYFP (UniProt P29317); assay: fluorescence intensity fluctuation
EphA2-eYFP [2] = molecular target: EphA2-eYFP (UniProt P29317); assay: fluorescence intensity fluctuation; remark: listed apart in the source

Amino acid sequences for entries named in this document (tags omitted). Residues count along the entry.
UniProt P29317, residues 24-976: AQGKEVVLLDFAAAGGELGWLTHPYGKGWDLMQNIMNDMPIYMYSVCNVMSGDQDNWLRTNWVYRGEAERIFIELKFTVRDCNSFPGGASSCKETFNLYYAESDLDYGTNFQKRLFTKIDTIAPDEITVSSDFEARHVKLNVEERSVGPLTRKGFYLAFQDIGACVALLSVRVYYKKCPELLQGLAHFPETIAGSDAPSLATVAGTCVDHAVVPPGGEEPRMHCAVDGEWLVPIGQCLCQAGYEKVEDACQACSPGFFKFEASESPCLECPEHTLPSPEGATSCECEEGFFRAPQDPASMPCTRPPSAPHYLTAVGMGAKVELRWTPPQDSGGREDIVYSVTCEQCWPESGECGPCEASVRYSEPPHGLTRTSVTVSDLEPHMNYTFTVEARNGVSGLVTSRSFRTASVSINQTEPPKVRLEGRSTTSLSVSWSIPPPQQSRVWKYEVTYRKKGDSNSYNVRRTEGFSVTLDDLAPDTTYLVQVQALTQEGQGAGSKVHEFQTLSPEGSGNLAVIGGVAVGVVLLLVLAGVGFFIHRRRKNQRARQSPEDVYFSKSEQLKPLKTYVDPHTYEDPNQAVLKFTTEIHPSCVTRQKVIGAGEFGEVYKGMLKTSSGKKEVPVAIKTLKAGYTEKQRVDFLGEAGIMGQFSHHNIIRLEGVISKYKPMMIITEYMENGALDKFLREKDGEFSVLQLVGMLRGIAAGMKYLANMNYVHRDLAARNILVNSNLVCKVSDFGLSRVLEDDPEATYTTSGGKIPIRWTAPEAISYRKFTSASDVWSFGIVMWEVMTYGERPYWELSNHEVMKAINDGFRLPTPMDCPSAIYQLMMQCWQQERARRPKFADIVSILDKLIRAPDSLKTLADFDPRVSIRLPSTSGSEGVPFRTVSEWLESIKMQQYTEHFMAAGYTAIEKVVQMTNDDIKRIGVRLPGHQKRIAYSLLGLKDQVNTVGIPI

With “EphA2-eYFP (from UniProt P29317 24-976) (receptor)” the binding (EphA2-eYFP [1]) was “binds” and the binding (EphA2-eYFP [2]) was “binds”.

Reference: paper doi:10.1101/2022.06.07.495003
